Measured values from the supplement of paper PMC12067093, “Discovery and optimisation of a covalent ligand for TRIM25 and its application to targeted protein ubiquitination” (Chemical Science, 2025).
This is one part of the list.

Amino acid sequences for entries named in this document (tags omitted). A change or cut given only in a name is not applied to a line headed by its entry.
UniProt Q96HA7: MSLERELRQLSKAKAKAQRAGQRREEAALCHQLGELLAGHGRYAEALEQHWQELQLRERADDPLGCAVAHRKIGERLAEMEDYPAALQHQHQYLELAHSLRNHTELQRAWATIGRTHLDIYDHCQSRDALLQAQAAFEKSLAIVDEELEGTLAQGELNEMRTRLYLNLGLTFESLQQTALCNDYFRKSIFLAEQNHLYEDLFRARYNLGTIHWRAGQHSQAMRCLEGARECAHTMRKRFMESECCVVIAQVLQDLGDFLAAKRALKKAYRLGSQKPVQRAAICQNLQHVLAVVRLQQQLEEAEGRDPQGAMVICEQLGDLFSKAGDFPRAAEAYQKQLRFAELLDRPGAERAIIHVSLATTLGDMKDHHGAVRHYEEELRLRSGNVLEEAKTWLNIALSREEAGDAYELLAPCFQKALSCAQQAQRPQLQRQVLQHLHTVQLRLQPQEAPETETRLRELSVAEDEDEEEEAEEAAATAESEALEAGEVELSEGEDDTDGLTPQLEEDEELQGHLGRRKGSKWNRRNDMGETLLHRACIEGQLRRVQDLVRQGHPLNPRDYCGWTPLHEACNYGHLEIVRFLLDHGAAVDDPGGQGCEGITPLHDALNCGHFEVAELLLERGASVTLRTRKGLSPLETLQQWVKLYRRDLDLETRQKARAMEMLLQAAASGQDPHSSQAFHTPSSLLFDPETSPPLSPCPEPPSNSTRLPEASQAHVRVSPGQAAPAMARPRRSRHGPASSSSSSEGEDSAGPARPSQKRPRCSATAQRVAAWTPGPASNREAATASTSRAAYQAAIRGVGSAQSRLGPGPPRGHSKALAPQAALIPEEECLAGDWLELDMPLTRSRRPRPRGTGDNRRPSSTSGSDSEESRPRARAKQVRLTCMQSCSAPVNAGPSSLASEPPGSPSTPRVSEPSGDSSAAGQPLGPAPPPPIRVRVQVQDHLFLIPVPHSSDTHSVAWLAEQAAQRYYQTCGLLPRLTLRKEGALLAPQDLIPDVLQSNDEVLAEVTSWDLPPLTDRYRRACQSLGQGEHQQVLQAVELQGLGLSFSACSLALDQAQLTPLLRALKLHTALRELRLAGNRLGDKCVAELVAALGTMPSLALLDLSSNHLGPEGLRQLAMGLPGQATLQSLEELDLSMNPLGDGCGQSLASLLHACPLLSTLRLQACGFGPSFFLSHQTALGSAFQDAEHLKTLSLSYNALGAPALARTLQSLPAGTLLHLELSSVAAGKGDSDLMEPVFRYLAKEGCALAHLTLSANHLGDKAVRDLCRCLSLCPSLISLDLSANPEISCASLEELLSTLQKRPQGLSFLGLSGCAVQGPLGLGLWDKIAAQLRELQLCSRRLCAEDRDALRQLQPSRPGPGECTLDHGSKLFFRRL
UniProt Q03169: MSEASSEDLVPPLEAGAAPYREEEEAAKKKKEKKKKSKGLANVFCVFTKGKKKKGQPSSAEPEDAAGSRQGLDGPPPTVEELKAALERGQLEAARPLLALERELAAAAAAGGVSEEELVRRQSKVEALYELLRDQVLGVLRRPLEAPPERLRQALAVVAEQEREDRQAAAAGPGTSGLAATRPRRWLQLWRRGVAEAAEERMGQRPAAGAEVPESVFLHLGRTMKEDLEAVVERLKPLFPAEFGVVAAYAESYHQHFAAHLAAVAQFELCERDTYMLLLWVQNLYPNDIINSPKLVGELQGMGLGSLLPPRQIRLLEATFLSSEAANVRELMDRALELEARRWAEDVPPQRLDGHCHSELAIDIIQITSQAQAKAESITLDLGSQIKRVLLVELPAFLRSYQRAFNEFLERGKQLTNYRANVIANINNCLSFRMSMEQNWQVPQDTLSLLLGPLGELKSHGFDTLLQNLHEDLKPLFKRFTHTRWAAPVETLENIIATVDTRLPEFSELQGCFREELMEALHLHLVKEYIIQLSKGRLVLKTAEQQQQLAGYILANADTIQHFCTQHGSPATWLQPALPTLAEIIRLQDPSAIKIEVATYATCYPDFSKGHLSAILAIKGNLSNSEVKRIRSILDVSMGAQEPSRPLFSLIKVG
UniProt Q02880: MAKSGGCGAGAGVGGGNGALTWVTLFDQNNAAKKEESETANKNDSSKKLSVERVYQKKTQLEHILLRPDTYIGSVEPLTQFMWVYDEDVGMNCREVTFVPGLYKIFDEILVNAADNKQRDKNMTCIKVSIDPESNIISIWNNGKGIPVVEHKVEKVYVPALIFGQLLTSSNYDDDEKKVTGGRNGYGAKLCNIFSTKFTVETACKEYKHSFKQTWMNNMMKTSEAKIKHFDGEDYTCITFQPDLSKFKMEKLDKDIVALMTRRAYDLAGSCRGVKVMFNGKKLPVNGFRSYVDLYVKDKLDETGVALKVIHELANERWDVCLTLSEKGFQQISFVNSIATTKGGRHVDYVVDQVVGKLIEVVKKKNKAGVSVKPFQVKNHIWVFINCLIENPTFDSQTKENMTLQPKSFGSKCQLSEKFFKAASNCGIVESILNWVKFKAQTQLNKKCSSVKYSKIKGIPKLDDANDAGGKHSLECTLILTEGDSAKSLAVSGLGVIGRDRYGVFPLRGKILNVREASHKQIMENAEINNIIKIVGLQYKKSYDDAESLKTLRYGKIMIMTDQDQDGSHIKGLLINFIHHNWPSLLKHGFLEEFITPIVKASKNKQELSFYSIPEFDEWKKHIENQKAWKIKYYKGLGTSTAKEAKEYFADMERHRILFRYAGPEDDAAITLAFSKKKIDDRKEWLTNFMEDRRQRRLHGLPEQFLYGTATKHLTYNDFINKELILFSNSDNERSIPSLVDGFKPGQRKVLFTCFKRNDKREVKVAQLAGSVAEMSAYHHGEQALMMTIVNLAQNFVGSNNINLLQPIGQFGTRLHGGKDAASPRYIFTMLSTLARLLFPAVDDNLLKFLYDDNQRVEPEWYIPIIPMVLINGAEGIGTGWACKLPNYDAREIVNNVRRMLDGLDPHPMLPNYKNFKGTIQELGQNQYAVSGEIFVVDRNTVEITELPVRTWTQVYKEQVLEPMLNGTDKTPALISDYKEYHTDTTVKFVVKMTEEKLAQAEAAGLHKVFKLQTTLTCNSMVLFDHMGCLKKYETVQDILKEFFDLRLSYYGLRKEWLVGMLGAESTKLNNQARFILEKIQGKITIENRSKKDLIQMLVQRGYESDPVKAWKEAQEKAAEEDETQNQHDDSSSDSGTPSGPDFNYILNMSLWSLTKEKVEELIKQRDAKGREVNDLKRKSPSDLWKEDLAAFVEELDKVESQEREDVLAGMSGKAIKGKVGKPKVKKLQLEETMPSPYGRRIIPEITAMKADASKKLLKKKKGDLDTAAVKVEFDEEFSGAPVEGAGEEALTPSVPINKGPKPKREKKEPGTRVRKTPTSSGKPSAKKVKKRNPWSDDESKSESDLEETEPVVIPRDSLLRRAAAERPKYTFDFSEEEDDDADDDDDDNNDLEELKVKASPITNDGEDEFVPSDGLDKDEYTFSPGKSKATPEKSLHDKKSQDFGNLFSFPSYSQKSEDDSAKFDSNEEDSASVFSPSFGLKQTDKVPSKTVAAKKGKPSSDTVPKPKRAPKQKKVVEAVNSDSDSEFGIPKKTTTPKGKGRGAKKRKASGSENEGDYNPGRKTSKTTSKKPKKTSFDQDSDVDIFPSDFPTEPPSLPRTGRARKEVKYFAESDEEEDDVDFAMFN
UniProt O60603, whole entry, looked up: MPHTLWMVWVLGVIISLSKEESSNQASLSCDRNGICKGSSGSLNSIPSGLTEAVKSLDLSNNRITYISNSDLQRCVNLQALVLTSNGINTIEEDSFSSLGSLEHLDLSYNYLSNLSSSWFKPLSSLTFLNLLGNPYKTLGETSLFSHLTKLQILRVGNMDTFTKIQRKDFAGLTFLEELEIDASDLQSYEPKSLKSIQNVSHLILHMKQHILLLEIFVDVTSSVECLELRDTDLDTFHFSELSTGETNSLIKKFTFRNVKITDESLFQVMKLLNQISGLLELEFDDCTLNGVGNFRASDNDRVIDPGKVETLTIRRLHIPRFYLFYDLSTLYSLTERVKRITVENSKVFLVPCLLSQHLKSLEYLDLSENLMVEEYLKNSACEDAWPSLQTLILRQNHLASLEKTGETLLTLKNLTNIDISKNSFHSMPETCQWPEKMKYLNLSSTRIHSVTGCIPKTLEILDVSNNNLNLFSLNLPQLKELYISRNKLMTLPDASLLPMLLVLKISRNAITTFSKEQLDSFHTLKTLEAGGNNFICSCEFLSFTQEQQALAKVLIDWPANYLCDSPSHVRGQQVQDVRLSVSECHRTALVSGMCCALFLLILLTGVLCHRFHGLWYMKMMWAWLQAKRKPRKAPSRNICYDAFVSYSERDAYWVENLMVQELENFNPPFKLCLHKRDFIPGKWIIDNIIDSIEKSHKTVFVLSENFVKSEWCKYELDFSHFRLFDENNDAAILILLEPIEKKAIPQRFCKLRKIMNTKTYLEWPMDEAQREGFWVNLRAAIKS
UniProt P60174, whole entry, looked up: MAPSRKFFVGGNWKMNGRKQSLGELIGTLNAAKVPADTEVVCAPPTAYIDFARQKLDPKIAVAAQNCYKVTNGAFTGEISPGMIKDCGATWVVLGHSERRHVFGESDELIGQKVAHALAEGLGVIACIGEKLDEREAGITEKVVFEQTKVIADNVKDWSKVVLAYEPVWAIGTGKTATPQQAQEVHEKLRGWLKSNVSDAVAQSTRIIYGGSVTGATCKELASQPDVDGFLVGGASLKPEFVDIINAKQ
UniProt Q68CZ2: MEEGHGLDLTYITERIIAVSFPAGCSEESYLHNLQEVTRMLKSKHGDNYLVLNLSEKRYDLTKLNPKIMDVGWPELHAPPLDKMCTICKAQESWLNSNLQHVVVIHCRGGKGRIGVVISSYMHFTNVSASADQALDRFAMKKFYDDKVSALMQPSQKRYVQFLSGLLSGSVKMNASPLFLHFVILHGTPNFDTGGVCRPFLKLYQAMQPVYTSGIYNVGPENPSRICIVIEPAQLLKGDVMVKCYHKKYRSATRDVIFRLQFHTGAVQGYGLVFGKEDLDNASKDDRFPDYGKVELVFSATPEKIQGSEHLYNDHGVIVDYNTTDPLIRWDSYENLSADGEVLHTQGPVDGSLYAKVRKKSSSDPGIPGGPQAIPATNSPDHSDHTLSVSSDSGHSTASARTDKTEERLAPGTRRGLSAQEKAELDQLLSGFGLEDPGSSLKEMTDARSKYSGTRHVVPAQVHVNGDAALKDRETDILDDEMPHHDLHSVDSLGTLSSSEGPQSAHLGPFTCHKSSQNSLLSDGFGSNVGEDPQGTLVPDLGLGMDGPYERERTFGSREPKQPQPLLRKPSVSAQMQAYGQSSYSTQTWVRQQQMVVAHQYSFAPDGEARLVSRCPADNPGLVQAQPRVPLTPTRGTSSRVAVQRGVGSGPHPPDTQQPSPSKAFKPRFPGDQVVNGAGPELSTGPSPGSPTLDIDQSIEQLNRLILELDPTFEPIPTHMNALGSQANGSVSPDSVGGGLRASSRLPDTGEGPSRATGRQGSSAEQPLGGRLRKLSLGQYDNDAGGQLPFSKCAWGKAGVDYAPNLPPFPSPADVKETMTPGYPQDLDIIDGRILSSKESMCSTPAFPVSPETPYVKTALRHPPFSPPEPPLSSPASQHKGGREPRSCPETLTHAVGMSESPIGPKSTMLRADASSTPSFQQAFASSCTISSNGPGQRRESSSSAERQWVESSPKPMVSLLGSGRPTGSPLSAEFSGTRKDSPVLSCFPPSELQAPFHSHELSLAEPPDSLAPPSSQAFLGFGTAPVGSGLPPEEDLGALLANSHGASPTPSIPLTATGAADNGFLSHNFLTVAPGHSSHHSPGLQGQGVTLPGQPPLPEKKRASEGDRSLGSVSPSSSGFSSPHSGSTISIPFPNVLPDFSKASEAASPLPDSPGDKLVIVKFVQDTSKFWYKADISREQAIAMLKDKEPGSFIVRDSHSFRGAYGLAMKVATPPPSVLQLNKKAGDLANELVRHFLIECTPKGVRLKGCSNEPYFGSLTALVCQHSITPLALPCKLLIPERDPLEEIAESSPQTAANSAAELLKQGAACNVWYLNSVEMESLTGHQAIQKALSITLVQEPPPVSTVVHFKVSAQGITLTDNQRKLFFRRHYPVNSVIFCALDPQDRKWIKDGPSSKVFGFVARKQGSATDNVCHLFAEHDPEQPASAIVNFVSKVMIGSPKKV
UniProt Q6ZT21: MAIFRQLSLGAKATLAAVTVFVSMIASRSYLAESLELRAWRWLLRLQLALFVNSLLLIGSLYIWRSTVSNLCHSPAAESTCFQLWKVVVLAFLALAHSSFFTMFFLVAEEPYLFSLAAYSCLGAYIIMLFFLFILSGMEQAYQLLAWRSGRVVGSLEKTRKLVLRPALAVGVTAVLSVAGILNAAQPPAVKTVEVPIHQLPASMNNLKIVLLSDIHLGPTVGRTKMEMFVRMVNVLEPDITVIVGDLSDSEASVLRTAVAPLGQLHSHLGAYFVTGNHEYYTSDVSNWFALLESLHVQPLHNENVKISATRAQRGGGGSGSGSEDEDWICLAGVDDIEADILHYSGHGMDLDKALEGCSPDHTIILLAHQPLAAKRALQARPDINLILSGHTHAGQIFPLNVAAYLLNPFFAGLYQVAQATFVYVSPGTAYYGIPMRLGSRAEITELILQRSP

compound: Cc1cc(ccc1-c1ccccc1)C(=O)N1CCCN(CC1)C(=O)CCl [compound 10]; assay: probe-labelled cysteine peptide fold change vs DMSO (competition) (log2 fold change); higher = less target engagement (more negative = stronger competition); details: 50 µM; THP-1; incubation time: 4 h
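Also: competitive profiling in live THP-1 cells: cysteine peptides tagged with an iodoacetamide desthiobiotin (IA-DTB) probe, intensity after compound treatment relative to DMSO-treated cells.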

Row | Target | probe-labelled cysteine peptide fold change
1 | TONSL_Q96HA7_561_DYCGWTPLHEACNYGHLEIVR (UniProt Q96HA7) | -0.365
2 | TMEM120B_A0PK00_43_QKLEELAALQTLCSSSISK (UniProt A0PK00) | -0.0551
3 | TOP2A_P11388_1145_EKKDELCR (UniProt P11388) | -0.516
4 | TNFAIP2_Q03169_356_LDGHCHSELAIDIIQITSQAQAK (UniProt Q03169) | -0.0762
5 | TOP2B_Q02880_426_AASNCGIVESILNWVK (UniProt Q02880) | -0.0099
6 | TLR2_O60603_353_VFLVPCLLSQHLK (UniProt O60603) | 0.228
7 | TMEM209_Q96SK2_495_TFTSQHFVQTPNKPDVTNENVFCIYQSAINPPHYELIYQR (UniProt Q96SK2) | 0.0358
8 | TM9SF2_Q99805_164_SMLLNYQHHWIVDNMPVTWCYDVEDGQR (UniProt Q99805) | 0.0215
9 | TOP1_P11387_733_ITVAWCK (UniProt P11387) | 0.204
10 | TMEM87A_Q8NBN3_89_SADCYNEIYNFK (UniProt Q8NBN3) | 0.149
11 | TNFAIP8_O95379_165_VNNVFDHFSDCEFLAALYNPFGNFKPHLQK (UniProt O95379) | -0.511
12 | TOP2B_Q02880_204_FTVETACK (UniProt Q02880) | 0.0132
13 | TOP2B_Q02880_271_RAYDLAGSCR (UniProt Q02880) | -0.0764
14 | TPI1_P60174_124_DCGATWVVLGHSERR (UniProt P60174) | -0.788
15 | TP53BP1_Q12888_712_ECSEAMEVETSVISIDSPQK (UniProt Q12888) | 0.193
16 | TMED8_Q6PL24_161_KVSPPLMAPPCIWTFAK (UniProt Q6PL24) | -0.766
17 | TMEM87B_Q96K49_139_NENLDCNSDSQVFPSLNNK (UniProt Q96K49) | 0.162
18 | TMEM106B_Q9NUM4_61+64_DSVTCPTCQGTGR (UniProt Q9NUM4) | -0.647

Row | Target | probe-labelled cysteine peptide fold change
19 | TNPO1_Q92973_205_SHAVACVNQFIISR (UniProt Q92973) | 0.0841
20 | TMTC3_Q6ZXV5_794_CLLETLALAPHEEYIQR (UniProt Q6ZXV5) | 0.204
21 | TLR2_O60603_564_VLIDWPANYLCDSPSHVR (UniProt O60603) | 0.0301
22 | TNS3_Q68CZ2_107_AQESWLNSNLQHVVVIHCR (UniProt Q68CZ2) | 0.262
23 | TNFAIP2_Q03169_512_LPEFSELQGCFREELMEALHLHLVK (UniProt Q03169) | -0.178
24 | TOX4_O94842_596_DWDNEYCSNECVVK (UniProt O94842) | 0.0724
25 | TONSL_Q96HA7_124_THLDIYDHCQSR (UniProt Q96HA7) | -0.623
26 | TNS3_Q68CZ2_842_ESMCSTPAFPVSPETPYVK (UniProt Q68CZ2) | -0.451
27 | TOP3B_O95985_522_HGIGTDASIPVHINNICQR (UniProt O95985) | 0.0237
28 | TNKS1BP1_Q9C0C2_1373_EHGVGGVSQCPEPGLR (UniProt Q9C0C2) | -0.339
29 | TMUB2_Q71RG4_236+240_SLNITDNCVIHCHR (UniProt Q71RG4) | -0.64
30 | TPI1_P60174_164_VAHALAEGLGVIACIGEKLDER (UniProt P60174) | -0.632
31 | TMPPE_Q6ZT21_358_ALEGCSPDHTIILLAHQPLAAK (UniProt Q6ZT21) | 0.284
32 | TOPBP1_Q92547_113_AEHPVYNMVMSDVTISCTSLEK (UniProt Q92547) | -0.214
33 | TMPO_P42166_341_SGIQPLCPER (UniProt P42166) | -0.36
34 | TNPO3_Q9Y5L0_580_ITECLSELCSVQVMALKK (UniProt Q9Y5L0) | -0.267
35 | TMEM192_Q8IY95_266_LLALTSSDLGCQPSRT (UniProt Q8IY95) | -0.414
36 | TOPBP1_Q92547_911_VVVCVSK (UniProt Q92547) | -0.114
